The other results are listed elsewhere or left out. Hit calls seldom repeat between salt and free forms of one compound.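 Kinases were expressed as nanoluciferase fusions in K562 cells and luminescence was read every 4 h between 2 and 18 h as percent of control, DMSO set to 100% and a positive control to 0%. A time point counts as decreased when the signal drops significantly (2 sigma). The hit call is the authors' own, does not follow from the count of time points alone, and its rule is not shown.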
Assays:
Experiment in all cases: number of time points (of 5) at which kinase-Nluc abundance scored as decreased, DMSO-normalised (count); higher = more persistent destabilization
Conditions in all cases: K562; 2-18 h
ALK = ALK (UniProt Q9UM73)
ARAF = ARAF (UniProt P10398)
AURKA = AURKA (UniProt O14965)
AURKB = AURKB (UniProt Q96GD4)
AURKC = AURKC (UniProt Q9UQB9)
BLK = BLK (UniProt P51451)
BMX = BMX (UniProt P51813)
BRAF = BRAF (UniProt P15056)
BRAF_V600E = tested on: BRAF_V600E
BTK = BTK (UniProt Q06187)
CAMK2A = CAMK2A (UniProt Q9UQM7)
CAMK2G = CAMK2G (UniProt Q13555)
CDK10 = CDK10 (UniProt Q15131)
CDK2 = CDK2 (UniProt P24941)
CDK3 = CDK3 (UniProt Q00526)
CDK5 = CDK5 (UniProt Q00535)
CDK6 = CDK6 (UniProt Q00534)
CHEK2 = CHEK2 (UniProt O96017)
CSF1R = CSF1R (UniProt P07333)
CSK = CSK (UniProt P41240)

Chains of the proteins cited; added tags and fusions are not shown. Lines headed by an entry give the natural chain unless they say otherwise; changes in a name come on top.
UniProt Q9UM73: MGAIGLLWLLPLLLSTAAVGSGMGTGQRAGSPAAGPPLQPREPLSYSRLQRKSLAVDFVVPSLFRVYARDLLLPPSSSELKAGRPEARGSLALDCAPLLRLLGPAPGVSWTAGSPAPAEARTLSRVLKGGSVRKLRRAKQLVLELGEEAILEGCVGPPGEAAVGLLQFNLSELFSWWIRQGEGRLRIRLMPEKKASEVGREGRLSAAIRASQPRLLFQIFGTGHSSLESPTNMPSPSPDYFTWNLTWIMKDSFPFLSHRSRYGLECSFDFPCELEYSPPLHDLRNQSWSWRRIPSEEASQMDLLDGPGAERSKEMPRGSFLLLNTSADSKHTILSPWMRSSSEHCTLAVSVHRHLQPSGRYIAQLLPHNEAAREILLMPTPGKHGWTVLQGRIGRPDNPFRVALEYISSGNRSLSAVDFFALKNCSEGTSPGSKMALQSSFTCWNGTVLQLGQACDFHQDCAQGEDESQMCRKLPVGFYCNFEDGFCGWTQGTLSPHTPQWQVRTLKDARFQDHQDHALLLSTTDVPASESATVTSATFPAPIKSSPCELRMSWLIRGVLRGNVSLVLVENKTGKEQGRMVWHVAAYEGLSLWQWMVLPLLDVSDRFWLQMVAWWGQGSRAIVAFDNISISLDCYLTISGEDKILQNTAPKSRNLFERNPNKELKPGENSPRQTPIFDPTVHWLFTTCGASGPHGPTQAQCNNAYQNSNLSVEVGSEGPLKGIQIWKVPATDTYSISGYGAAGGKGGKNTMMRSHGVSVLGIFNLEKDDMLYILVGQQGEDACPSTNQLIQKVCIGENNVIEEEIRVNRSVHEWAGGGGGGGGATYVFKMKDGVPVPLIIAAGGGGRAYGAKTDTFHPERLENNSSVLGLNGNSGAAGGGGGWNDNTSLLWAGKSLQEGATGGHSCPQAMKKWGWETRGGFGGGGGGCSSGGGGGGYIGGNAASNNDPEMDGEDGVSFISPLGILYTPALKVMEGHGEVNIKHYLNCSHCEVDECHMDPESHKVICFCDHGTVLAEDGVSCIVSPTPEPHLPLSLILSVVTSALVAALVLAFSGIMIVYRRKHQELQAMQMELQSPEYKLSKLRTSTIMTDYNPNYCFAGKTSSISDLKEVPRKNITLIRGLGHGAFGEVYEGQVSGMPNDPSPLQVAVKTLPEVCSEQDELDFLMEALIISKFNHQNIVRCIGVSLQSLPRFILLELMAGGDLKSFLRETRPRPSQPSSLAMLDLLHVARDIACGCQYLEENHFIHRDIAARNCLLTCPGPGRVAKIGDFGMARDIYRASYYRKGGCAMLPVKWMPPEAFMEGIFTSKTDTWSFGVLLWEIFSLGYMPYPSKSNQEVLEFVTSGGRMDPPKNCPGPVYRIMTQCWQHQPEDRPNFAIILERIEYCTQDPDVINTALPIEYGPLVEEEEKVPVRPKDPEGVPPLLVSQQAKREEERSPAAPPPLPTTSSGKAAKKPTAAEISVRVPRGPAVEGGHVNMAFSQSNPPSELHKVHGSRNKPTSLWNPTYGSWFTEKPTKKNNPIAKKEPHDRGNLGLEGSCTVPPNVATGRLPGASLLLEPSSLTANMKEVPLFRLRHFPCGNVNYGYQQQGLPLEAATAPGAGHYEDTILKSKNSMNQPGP
UniProt O14965: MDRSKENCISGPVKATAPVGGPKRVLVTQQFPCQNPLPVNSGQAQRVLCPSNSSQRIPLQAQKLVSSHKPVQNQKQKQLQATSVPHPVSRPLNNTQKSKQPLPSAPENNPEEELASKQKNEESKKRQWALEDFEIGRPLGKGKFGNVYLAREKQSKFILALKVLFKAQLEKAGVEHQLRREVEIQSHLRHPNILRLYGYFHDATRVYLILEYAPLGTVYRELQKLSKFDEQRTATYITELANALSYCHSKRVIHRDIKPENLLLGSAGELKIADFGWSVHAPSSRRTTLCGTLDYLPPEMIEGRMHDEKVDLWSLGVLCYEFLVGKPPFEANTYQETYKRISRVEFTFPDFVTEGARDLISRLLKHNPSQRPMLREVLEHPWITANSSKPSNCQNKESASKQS
UniProt Q9UQB9: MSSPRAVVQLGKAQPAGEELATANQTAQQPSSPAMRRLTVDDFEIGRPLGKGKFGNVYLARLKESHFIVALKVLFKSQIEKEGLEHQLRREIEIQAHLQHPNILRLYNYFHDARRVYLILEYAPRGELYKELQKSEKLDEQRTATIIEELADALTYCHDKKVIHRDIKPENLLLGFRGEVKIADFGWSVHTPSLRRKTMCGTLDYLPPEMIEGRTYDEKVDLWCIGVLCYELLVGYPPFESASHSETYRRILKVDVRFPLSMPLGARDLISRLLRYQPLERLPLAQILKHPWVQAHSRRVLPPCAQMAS
UniProt P51451: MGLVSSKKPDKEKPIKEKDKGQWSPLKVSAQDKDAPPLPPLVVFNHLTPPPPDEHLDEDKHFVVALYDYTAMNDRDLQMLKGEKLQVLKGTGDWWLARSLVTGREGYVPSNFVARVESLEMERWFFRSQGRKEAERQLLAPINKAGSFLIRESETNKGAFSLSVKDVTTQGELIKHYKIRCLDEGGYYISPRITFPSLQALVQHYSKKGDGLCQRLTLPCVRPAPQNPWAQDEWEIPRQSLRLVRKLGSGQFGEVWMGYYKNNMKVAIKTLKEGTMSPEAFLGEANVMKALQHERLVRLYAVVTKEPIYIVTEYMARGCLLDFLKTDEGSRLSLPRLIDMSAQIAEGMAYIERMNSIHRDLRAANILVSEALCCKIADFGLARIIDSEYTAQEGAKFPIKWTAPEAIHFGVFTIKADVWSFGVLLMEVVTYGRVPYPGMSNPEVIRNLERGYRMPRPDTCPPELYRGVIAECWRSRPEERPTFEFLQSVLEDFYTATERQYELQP
UniProt P15056, whole entry, looked up: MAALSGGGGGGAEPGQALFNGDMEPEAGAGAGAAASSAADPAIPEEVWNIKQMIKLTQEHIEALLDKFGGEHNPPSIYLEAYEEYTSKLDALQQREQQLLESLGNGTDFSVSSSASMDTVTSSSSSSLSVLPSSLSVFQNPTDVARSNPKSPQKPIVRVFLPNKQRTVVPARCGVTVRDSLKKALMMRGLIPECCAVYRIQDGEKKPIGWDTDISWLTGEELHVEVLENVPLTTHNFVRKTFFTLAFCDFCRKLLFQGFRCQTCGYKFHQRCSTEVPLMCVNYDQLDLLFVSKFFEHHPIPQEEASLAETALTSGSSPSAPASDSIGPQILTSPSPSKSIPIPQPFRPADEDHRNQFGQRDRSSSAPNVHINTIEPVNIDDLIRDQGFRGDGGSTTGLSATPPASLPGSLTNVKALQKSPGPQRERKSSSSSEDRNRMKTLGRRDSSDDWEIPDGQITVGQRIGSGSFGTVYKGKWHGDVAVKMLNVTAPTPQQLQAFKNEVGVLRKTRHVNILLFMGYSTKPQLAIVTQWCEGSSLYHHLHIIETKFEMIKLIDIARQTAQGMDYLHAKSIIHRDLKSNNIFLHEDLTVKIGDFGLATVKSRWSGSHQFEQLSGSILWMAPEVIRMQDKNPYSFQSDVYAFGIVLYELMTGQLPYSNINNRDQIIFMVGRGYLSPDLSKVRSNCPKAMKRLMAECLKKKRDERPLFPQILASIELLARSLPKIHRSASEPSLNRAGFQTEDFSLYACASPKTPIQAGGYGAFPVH
UniProt Q06187: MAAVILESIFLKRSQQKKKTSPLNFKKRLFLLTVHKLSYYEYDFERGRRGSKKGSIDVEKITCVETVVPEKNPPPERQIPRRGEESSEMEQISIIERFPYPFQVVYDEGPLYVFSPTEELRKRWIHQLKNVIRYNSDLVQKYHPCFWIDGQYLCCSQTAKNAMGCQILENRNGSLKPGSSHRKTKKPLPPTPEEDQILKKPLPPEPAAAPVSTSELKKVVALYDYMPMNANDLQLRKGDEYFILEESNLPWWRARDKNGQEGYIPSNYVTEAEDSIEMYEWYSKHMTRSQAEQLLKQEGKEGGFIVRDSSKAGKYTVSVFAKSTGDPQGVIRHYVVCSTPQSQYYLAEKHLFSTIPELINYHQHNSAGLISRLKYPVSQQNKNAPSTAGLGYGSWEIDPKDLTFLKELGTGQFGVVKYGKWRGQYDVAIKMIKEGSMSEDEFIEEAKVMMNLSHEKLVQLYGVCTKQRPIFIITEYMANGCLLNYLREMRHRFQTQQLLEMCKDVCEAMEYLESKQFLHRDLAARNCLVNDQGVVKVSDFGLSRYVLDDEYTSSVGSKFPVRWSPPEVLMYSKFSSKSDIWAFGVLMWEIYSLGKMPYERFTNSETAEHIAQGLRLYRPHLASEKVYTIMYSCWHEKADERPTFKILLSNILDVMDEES
UniProt Q13555: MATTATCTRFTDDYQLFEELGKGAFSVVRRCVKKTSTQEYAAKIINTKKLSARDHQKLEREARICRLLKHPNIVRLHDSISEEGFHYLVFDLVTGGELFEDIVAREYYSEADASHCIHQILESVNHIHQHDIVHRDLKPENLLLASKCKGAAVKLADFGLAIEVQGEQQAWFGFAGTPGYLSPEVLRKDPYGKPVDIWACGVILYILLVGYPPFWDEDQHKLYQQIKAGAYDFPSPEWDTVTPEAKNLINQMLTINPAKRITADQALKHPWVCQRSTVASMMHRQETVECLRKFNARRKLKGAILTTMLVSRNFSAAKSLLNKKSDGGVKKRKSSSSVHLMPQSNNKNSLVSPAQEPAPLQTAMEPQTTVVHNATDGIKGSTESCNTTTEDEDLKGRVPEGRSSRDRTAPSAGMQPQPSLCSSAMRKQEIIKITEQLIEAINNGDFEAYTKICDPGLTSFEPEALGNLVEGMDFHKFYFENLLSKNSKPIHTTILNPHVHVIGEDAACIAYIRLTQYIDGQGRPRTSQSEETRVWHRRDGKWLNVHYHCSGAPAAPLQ
UniProt Q15131: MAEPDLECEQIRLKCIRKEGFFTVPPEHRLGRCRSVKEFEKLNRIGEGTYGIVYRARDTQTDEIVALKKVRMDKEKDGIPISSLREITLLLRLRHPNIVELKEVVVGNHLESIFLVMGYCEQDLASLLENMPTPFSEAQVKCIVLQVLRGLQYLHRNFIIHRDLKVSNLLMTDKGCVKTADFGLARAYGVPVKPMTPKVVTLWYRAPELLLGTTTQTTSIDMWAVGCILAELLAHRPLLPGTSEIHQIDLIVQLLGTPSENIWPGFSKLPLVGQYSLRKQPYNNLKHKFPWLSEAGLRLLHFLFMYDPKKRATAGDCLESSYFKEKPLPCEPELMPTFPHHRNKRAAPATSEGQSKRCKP
UniProt Q00526: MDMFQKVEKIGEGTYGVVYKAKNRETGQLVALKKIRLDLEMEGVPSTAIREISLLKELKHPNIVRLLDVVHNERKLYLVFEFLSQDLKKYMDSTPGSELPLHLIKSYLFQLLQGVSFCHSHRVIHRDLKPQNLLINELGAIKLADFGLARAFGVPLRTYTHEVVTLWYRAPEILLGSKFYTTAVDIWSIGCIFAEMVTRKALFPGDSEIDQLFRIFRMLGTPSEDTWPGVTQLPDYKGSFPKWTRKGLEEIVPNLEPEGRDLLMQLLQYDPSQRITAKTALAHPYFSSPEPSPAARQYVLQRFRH
UniProt Q00535, whole entry, looked up: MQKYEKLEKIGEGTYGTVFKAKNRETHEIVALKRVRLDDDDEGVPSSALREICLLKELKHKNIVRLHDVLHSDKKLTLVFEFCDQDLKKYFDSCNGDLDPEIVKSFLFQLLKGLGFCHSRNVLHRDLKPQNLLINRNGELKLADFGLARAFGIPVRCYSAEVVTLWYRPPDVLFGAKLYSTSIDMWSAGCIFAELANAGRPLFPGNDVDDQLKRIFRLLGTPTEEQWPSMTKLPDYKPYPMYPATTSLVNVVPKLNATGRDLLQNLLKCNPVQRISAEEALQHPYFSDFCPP
UniProt Q00534, whole entry: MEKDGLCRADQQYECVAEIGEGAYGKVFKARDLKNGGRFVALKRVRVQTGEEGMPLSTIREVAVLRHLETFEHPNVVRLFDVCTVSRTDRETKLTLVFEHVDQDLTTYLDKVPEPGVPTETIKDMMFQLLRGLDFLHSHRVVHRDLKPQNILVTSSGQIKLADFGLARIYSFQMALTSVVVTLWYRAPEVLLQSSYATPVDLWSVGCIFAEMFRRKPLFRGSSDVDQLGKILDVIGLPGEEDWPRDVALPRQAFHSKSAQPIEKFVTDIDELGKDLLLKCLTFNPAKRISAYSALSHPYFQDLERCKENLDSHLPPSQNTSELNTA
UniProt P41240: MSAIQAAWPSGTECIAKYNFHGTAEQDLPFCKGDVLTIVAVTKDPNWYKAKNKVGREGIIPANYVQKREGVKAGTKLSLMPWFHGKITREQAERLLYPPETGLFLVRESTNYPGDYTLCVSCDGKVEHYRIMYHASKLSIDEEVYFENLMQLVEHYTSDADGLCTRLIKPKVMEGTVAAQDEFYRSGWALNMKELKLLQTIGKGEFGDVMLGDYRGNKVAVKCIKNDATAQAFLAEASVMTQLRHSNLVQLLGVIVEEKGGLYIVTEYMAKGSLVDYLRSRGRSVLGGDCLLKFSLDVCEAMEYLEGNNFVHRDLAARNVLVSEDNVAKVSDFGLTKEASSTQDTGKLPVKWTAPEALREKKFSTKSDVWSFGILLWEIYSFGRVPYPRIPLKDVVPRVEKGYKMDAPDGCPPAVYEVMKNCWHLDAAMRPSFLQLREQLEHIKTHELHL

Measured: number of time points

Oc1c(F)cc(-c2cnccc2-c2ccc(N3CCOCC3)cc2)cc1F (10 µM)
0: ALK | ARAF | AURKA | AURKB | AURKC | BLK | BMX | BRAF | BRAF_V600E | BTK | CAMK2A | CAMK2G | CDK10 | CDK2 | CDK3 | CDK5 | CDK6 | CHEK2 | CSF1R | CSK

CNC(=O)c1ccc2c(C(=Nc3cccc(CN(C)C)c3)c3ccccc3)c(O)[nH]c2c1 [MEK inhibitor] (10 µM)
0: ALK | ARAF | AURKA | AURKB | AURKC | BLK | BMX | BRAF | BRAF_V600E | BTK | CAMK2A | CAMK2G | CDK10 | CDK2 | CDK3 | CDK5 | CDK6 | CHEK2 | CSF1R | CSK

C=CC(=O)N1CCC[C@@H](n2nc(-c3ccc(Oc4ccccc4)cc3)c3c(N)n[nH]c(=O)c32)C1 [BTK inhibitor 17] (10 µM)
0: ALK | ARAF | AURKA | AURKB | AURKC | BLK | BMX | BRAF | BTK | CAMK2A | CAMK2G | CDK10 | CDK2 | CDK3 | CDK5 | CDK6 | CHEK2 | CSF1R | CSK
1: BRAF_V600E

O=c1[nH]ccc2nc(-c3ccc(CN4CCC(c5nc(-c6ccccn6)n[nH]5)CC4)cc3)c(-c3ccccc3)cc12 (10 µM)
0: ALK | ARAF | AURKA | AURKB | AURKC | BLK | BMX | BRAF | BRAF_V600E | BTK | CAMK2A | CAMK2G | CDK10 | CDK2 | CDK3 | CDK5 | CDK6 | CHEK2 | CSF1R | CSK

COc1cc2ncnc(Nc3cccc(I)c3)c2cc1OC (2.5 µM)
0: ALK | ARAF | AURKA | AURKB | AURKC | BLK | BMX | BRAF | BRAF_V600E | BTK | CAMK2A | CAMK2G | CDK10 | CDK2 | CDK3 | CDK5 | CDK6 | CHEK2 | CSF1R | CSK

Nc1nccc(-c2c(-c3ccc(F)cc3)ncn2C2CCCCC2)n1 (10 µM)
0: ALK | ARAF | AURKA | AURKB | AURKC | BLK | BMX | BRAF | BRAF_V600E | BTK | CAMK2A | CAMK2G | CDK10 | CDK2 | CDK3 | CDK5 | CDK6 | CHEK2 | CSF1R | CSK

NC(=O)c1cnc(-c2ccc(C3(N)CCC3)cc2)c(-c2ccccc2)c1 (10 µM)
0: ALK | ARAF | AURKA | AURKB | AURKC | BLK | BMX | BRAF | BRAF_V600E | BTK | CAMK2A | CAMK2G | CDK10 | CDK2 | CDK3 | CDK5 | CDK6 | CHEK2 | CSF1R | CSK

Cc1cc(CSc2ccccc2C(=O)NCCNc2ccc(C(F)(F)F)cc2[N+](=O)[O-])on1 (10 µM)
0: ALK | ARAF | AURKA | AURKB | AURKC | BLK | BMX | BRAF | BRAF_V600E | BTK | CAMK2A | CAMK2G | CDK10 | CDK2 | CDK3 | CDK5 | CDK6 | CHEK2 | CSF1R | CSK

O=C(NCCO)c1cc(C(=O)NCCO)cc(C(=O)NCCO)c1 (10 µM)
0: ALK | ARAF | AURKA | AURKB | AURKC | BLK | BMX | BRAF | BRAF_V600E | BTK | CAMK2A | CAMK2G | CDK10 | CDK2 | CDK3 | CDK5 | CDK6 | CHEK2 | CSF1R | CSK

Cc1c(C(=O)Nc2ccc(Oc3ccnc4[nH]cc(-c5ccccc5)c34)c(F)c2)c(=O)n(-c2ccc(F)cc2)n1C (10 µM)
1: BRAF_V600E
0: ALK | ARAF | AURKA | AURKB | AURKC | BLK | BMX | BRAF | BTK | CAMK2A | CAMK2G | CDK10 | CDK2 | CDK3 | CDK5 | CDK6 | CHEK2 | CSF1R | CSK

Cc1cnc(NC(=O)c2cc(Oc3cnc(C(=O)N(C)C)nc3)c3cc(C)oc3c2)cn1 (10 µM)
0: ALK | ARAF | AURKA | AURKB | AURKC | BLK | BMX | BRAF | BRAF_V600E | BTK | CAMK2A | CAMK2G | CDK10 | CDK2 | CDK3 | CDK5 | CDK6 | CHEK2 | CSF1R | CSK

CN1CCN(c2cc(-c3ccncc3)c(-c3ccc4ccccc4c3)nn2)CC1 (10 µM)
0: ALK | ARAF | AURKA | AURKB | AURKC | BLK | BMX | BRAF | BRAF_V600E | BTK | CAMK2A | CAMK2G | CDK10 | CDK2 | CDK3 | CDK5 | CDK6 | CHEK2 | CSF1R | CSK

COc1cc(N2CCC(N3CCN(C)CC3)CC2)ccc1Nc1ncc(Cl)c(-c2c[nH]c3ccccc23)n1 (2.5 µM)
0: ALK | ARAF | AURKA | AURKB | AURKC | BLK | BMX | BRAF | BRAF_V600E | BTK | CAMK2A | CAMK2G | CDK10 | CDK2 | CDK3 | CDK5 | CDK6 | CHEK2 | CSF1R | CSK

O=C(Nc1cccnc1)c1cc(-c2ccnc(F)c2)ccc1OCc1ccccc1 (10 µM)
0: ALK | ARAF | AURKA | AURKB | AURKC | BLK | BMX | BRAF | BRAF_V600E | BTK | CAMK2A | CAMK2G | CDK10 | CDK2 | CDK3 | CDK5 | CDK6 | CHEK2 | CSF1R | CSK

Reprinted at random: 2 records from the list.
Cc1cnc(NC(=O)c2cc(Oc3cnc(C(=O)N(C)C)nc3)c3cc(C)oc3c2)cn1 (10 µM)
0: ALK | ARAF | AURKA | AURKB | AURKC | BLK | BMX | BRAF | BRAF_V600E | BTK | CAMK2A | CAMK2G | CDK10 | CDK2 | CDK3 | CDK5 | CDK6 | CHEK2 | CSF1R | CSK

COc1cc2ncnc(Nc3cccc(I)c3)c2cc1OC (2.5 µM)
0: ALK | ARAF | AURKA | AURKB | AURKC | BLK | BMX | BRAF | BRAF_V600E | BTK | CAMK2A | CAMK2G | CDK10 | CDK2 | CDK3 | CDK5 | CDK6 | CHEK2 | CSF1R | CSK

The results go on:

C=CC(=O)Nc1cc(Nc2nccc(-c3cn(C)c4ccccc34)n2)c(OC)cc1OCCN(C)C [Rezivertinib] (2.5 µM)
5: CDK6
1: BLK
0: ALK | ARAF | AURKA | AURKB | AURKC | BMX | BRAF | BRAF_V600E | BTK | CAMK2A | CAMK2G | CDK10 | CDK2 | CDK3 | CDK5 | CHEK2 | CSF1R | CSK

O=c1cc(N2CCOCC2)oc2c(-c3ccc4c(c3)OCCO4)csc12 (2.5 µM)
0: ALK | ARAF | AURKA | AURKB | AURKC | BLK | BMX | BRAF | BRAF_V600E | BTK | CAMK2A | CAMK2G | CDK10 | CDK2 | CDK3 | CDK5 | CDK6 | CHEK2 | CSF1R | CSK

O=c1cc(-c2ccccc2)oc2cc(O[C@@H]3O[C@H](CO[C@@H]4O[C@H](CO)[C@@H](O)[C@H](O)[C@H]4O)[C@@H](O)[C@H](O)[C@H]3O)c(O)c(O)c12 [Oroxin B] (10 µM)
0: ALK | ARAF | AURKA | AURKB | AURKC | BLK | BMX | BRAF | BRAF_V600E | BTK | CAMK2A | CAMK2G | CDK10 | CDK2 | CDK3 | CDK5 | CDK6 | CHEK2 | CSF1R | CSK

Cc1ccc(C)c(OCCn2cc(C(=O)O)c3ccccc32)c1 (10 µM)
0: ALK | ARAF | AURKA | AURKB | AURKC | BLK | BMX | BRAF | BRAF_V600E | BTK | CAMK2A | CAMK2G | CDK10 | CDK2 | CDK3 | CDK5 | CDK6 | CHEK2 | CSF1R | CSK

Cn1c(=O)c2c(nc(S(C)(=O)=O)n2C)n(CC#Cc2cccc(O)c2)c1=O (2.5 µM)
0: ALK | ARAF | AURKA | AURKB | AURKC | BLK | BMX | BRAF | BRAF_V600E | BTK | CAMK2A | CAMK2G | CDK10 | CDK2 | CDK3 | CDK5 | CDK6 | CHEK2 | CSK
1: CSF1R

CC(O)(C#Cc1ccc2c(c1)N(c1nc(N)ncc1Cl)CC2)c1nccs1 (stereo not given) (2.5 µM)
0: ALK | ARAF | AURKA | AURKB | AURKC | BLK | BMX | BRAF | BRAF_V600E | BTK | CAMK2A | CAMK2G | CDK10 | CDK2 | CDK3 | CDK5 | CDK6 | CHEK2 | CSF1R | CSK

Cc1cc(C(=O)NOCCO)c(Nc2ccc(I)cc2F)n(C)c1=O (10 µM)
2: BRAF_V600E | CDK2
0: ALK | ARAF | AURKA | AURKB | AURKC | BLK | BMX | BRAF | BTK | CAMK2A | CAMK2G | CDK10 | CDK3 | CDK5 | CDK6 | CHEK2 | CSF1R | CSK

COc1cc(-c2oc3cc(O)cc(O)c3c(=O)c2O)ccc1O [Isorhamnetin] (10 µM)
0: ALK | ARAF | AURKA | AURKB | AURKC | BLK | BMX | BRAF | BRAF_V600E | BTK | CAMK2A | CAMK2G | CDK10 | CDK2 | CDK3 | CDK5 | CDK6 | CHEK2 | CSF1R | CSK

Clc1ccc(C(c2ccc(Cl)cc2)[n+]2ccn(CC(OCc3ccc(Cl)cc3Cl)c3ccc(Cl)cc3Cl)c2)cc1 (stereo not given) [Calmidazolium chloride] (2.5 µM)
0: ALK | ARAF | AURKC | BMX | BRAF | BTK | CAMK2A | CAMK2G | CDK2 | CDK3 | CDK5 | CDK6 | CHEK2 | CSF1R | CSK
2: BRAF_V600E | CDK10
3: AURKA | BLK
1: AURKB

C=CC(=O)Nc1ccc(C(=O)Nc2[nH]nc3c2CN(C(=O)N[C@H](CN(C)C)c2ccccc2)C3(C)C)cc1 (10 µM)
4: BRAF_V600E
2: ALK | BMX | BRAF
1: CDK2 | CDK6 | CSF1R
3: AURKA | BLK | CAMK2A
0: ARAF | AURKB | AURKC | BTK | CAMK2G | CDK10 | CDK3 | CDK5 | CHEK2 | CSK
